{
  "sequences": {"note": "Protein sequences, listed by entry. Tags and fused reporters are not part of them.", "UniProt Q9BUH6": "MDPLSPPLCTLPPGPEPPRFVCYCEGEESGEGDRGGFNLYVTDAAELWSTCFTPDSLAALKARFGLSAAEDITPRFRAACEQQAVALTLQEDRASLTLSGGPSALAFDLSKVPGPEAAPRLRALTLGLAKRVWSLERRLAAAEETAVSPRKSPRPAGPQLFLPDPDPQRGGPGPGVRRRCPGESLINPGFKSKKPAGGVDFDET"},
  "source": "paper PMC4339890",
  "about": "(Nature Communications, 2015)",
  "key": {"[1]": {"target": "T1, Flag-tagged DNA polymerase λ (human) (UniProt Q9UGP5)", "T1 sequence": "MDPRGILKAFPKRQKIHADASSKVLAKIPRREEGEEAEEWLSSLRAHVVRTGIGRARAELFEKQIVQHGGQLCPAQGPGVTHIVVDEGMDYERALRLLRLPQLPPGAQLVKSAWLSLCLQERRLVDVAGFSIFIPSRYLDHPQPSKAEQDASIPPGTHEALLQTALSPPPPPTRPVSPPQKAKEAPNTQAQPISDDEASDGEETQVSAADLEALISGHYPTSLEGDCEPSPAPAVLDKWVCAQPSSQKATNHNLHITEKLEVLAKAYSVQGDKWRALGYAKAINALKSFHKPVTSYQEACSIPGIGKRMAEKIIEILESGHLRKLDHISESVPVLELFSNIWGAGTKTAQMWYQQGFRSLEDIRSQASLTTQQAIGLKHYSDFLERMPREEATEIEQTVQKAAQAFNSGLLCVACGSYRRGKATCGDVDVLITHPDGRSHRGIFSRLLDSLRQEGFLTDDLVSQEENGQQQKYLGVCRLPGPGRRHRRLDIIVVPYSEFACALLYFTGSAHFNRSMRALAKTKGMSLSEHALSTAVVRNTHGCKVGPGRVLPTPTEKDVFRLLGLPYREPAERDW"}, "[2]": {"target": "T2, Flag-tagged APTX–polynucleotide kinase-phosphatase-like factor (human) (UniProt Q8IW19)", "T2 sequence": "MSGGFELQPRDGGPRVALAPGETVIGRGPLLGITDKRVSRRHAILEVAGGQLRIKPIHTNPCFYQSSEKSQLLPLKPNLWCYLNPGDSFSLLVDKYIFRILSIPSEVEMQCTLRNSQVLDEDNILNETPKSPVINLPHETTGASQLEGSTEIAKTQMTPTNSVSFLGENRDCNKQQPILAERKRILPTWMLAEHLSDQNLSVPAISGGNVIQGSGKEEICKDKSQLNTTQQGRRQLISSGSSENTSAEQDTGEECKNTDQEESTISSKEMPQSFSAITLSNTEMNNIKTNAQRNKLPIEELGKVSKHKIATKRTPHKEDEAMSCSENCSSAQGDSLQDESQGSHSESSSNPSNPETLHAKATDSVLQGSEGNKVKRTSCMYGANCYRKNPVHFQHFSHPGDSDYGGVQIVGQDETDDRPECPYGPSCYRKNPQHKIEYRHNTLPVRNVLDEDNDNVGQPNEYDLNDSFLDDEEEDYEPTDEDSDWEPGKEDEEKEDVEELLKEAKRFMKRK"}},
  "note": "No constants are given. Whether binding was seen depends on the method and setting. Binding seen in cells or lysates may run through a third protein. These calls come from enrichment with a bait or labelling near it, and not all partners need be listed. Where a sequence is shown, tags or fusion partners need not be part of it.",
  "data": [
    {"substance": "PAXX (C9orf142), endogenous (from UniProt Q9BUH6 1-204)", "values": [
      {"measurement": "binding", "setting": "[1]", "value": "binds"},
      {"measurement": "binding", "setting": "[2]", "value": "binds"}
    ]}
  ]
}
